PubChem BioAssay AID1259263 – Sanger Institute – 2017

Aim: 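Find siRNA and drug combinations lethal together in bowel cancer cells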 (follow-up of hits)
Cell system: SW1463 human colorectal cancer cell line
Reagents: single siRNA against human genes
Challenge: anchor drugs BYL719 at 1 µM, cetuximab at 5 µg/ml or trametinib at 10 nM, or DMSO vehicle, added one day after siRNA transfection
Detection: 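Replicate-mean survival scaled to a non-targeting siRNA control, and a synergy score of actual versus predicted viability drop when siRNA and drug act together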
Direction: synergy score with trametinib and synergy score with BYL719 and synergy score with cetuximab: higher = stronger synthetic lethal effect with the drug
Hit rule: 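Called active if the synergy score is above 0.10 for one or more of the three anchor drugs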
Meaning of the calls: active = synergy with at least one drug; inactive = no synergy with any drug
The deposit covers 160 reagents; this is an unselected part. Over the whole deposit, 101 (63%) got an active call. 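Drug doses chosen to kill few cells alone; each row is one siRNA, and a gene counts as confirmed only if two or more siRNAs show synergy.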 Not all columns of the deposit are shown. Not given: the amount of reagent, the time to read-out.

Gene | PubChem SID | synergy score with trametinib | synergy score with BYL719 | synergy score with cetuximab | Outcome
AK2 (adenylate kinase 2) | SID56477903 | 0.148 | -0.152 | 0.148 | active
AK2 (adenylate kinase 2) | SID56477904 | 0.298 | -0.061 | -0.0202 | active
AK2 (adenylate kinase 2) | SID56477905 | 0.0835 | -0.0704 | -0.0539 | inactive
AK2 (adenylate kinase 2) | SID56477906 | -0.0567 | -0.381 | -0.146 | inactive
PAK1 (p21 (RAC1) activated kinase 1) | SID56475940 | 0.248 | -0.0498 | 0.00981 | active
PAK1 (p21 (RAC1) activated kinase 1) | SID56475941 | 0.185 | -0.0336 | 0.0947 | active
PAK1 (p21 (RAC1) activated kinase 1) | SID56475942 | 0.216 | -0.0938 | 0.119 | active
PAK1 (p21 (RAC1) activated kinase 1) | SID135611339 | 0.228 | -0.0704 | -0.00192 | active
PRAG1 (PEAK1 related, kinase-activating pseudokinase 1) | SID56478455 | 0.199 | 0.345 | 0.176 | active
PRAG1 (PEAK1 related, kinase-activating pseudokinase 1) | SID56478456 | 0.199 | 0.114 | 0.05 | active
PRAG1 (PEAK1 related, kinase-activating pseudokinase 1) | SID56478457 | -0.125 | -0.0386 | -0.151 | inactive
PRAG1 (PEAK1 related, kinase-activating pseudokinase 1) | SID56478458 | -0.0316 | -0.0158 | 0.0241 | inactive
MAPKAPK2 (MAPK activated protein kinase 2) | SID56475927 | 0.0835 | 0.162 | 0.0426 | –
MAPKAPK2 (MAPK activated protein kinase 2) | SID56475928 | 0.252 | 0.0358 | 0.109 | active
MAPKAPK2 (MAPK activated protein kinase 2) | SID56475929 | 0.0195 | 0.154 | 0.0808 | –
MAPKAPK2 (MAPK activated protein kinase 2) | SID56475930 | -0.12 | 0.169 | -0.00694 | –
KCNH8 (potassium voltage-gated channel subfamily H member 8) | SID134236349 | 0.15 | 0.0267 | 0.331 | active
KCNH8 (potassium voltage-gated channel subfamily H member 8) | SID134236350 | 0.193 | 0.219 | 0.134 | active
KCNH8 (potassium voltage-gated channel subfamily H member 8) | SID134236351 | -0.0946 | 0.0622 | -0.0793 | inactive
KCNH8 (potassium voltage-gated channel subfamily H member 8) | SID134236352 | 0.216 | -0.128 | -0.068 | active
CDK6 (cyclin dependent kinase 6) | SID56475655 | -0.00509 | -0.114 | 0.0281 | inactive
CDK6 (cyclin dependent kinase 6) | SID56475656 | 0.362 | 0.171 | 0.151 | active
CDK6 (cyclin dependent kinase 6) | SID56475657 | 0.194 | -0.118 | 0.0287 | active
CDK6 (cyclin dependent kinase 6) | SID56475658 | 0.241 | 0.232 | 0.327 | active
PIM1 (Pim-1 proto-oncogene, serine/threonine kinase) | SID56476199 | 0.34 | 0.0415 | 0.0366 | active
PIM1 (Pim-1 proto-oncogene, serine/threonine kinase) | SID56476200 | 0.189 | 0.106 | 0.0874 | active
PIM1 (Pim-1 proto-oncogene, serine/threonine kinase) | SID56476201 | 0.0353 | -0.0704 | -0.00937 | inactive
PIM1 (Pim-1 proto-oncogene, serine/threonine kinase) | SID56476202 | 0.207 | 0.121 | 0.104 | active
MAPK4 (mitogen-activated protein kinase 4) | SID56476079 | 0.0427 | 0.0622 | -0.0947 | inactive
MAPK4 (mitogen-activated protein kinase 4) | SID56476080 | 0.152 | 0.0396 | -0.127 | active
MAPK4 (mitogen-activated protein kinase 4) | SID56476081 | 0.4 | 0.351 | 0.238 | active
MAPK4 (mitogen-activated protein kinase 4) | SID56476082 | -0.0118 | 0.0709 | -0.02 | inactive
GTF2H1 (general transcription factor IIH subunit 1) | SID56478227 | 0.00918 | 0.099 | -0.125 | inactive
GTF2H1 (general transcription factor IIH subunit 1) | SID56478228 | 0.206 | 0.0288 | 0.0129 | active
GTF2H1 (general transcription factor IIH subunit 1) | SID56478229 | 0.378 | 0.543 | 0.0386 | active
GTF2H1 (general transcription factor IIH subunit 1) | SID56478230 | 0.288 | 0.197 | 0.126 | active
NLK (nemo like kinase) | SID56476715 | -0.0303 | 0.213 | 0.0268 | –
NLK (nemo like kinase) | SID56476716 | -0.168 | -0.112 | -0.12 | inactive
NLK (nemo like kinase) | SID56476717 | -0.0272 | -0.176 | 0.398 | –
NLK (nemo like kinase) | SID56476718 | -0.118 | -0.101 | -0.00201 | inactive
STK36 (serine/threonine kinase 36) | SID56477127 | -0.0702 | -0.312 | -0.0542 | inactive
STK36 (serine/threonine kinase 36) | SID56477128 | 0.00188 | -0.0704 | -0.00565 | inactive
STK36 (serine/threonine kinase 36) | SID56477129 | -0.0211 | -0.00469 | -0.0409 | inactive
STK36 (serine/threonine kinase 36) | SID135611686 | 0.184 | -0.0704 | 0.154 | active
SYK (spleen associated tyrosine kinase) | SID56475471 | -0.125 | -0.29 | -0.114 | inactive
SYK (spleen associated tyrosine kinase) | SID56475472 | 0.0608 | -0.265 | -0.132 | inactive
SYK (spleen associated tyrosine kinase) | SID56475473 | 0.171 | -0.0689 | 0.0267 | active
SYK (spleen associated tyrosine kinase) | SID56475474 | 0.165 | -0.0704 | -0.0131 | active
ACVR1 (activin A receptor type 1) | SID56476923 | 0.0679 | -0.239 | -0.133 | inactive
ACVR1 (activin A receptor type 1) | SID56476924 | -0.0422 | -0.404 | -0.242 | inactive
ACVR1 (activin A receptor type 1) | SID56476925 | 0.0767 | -0.176 | -0.0477 | inactive
ACVR1 (activin A receptor type 1) | SID152154144 | -0.18 | -0.177 | -0.188 | inactive
